# Test results from patent publication US20190315859A1.
# Chains of the proteins cited; added tags and fusions are not shown. Residues count along the entry.
# UniProt P15391, 20-488 limits assumed: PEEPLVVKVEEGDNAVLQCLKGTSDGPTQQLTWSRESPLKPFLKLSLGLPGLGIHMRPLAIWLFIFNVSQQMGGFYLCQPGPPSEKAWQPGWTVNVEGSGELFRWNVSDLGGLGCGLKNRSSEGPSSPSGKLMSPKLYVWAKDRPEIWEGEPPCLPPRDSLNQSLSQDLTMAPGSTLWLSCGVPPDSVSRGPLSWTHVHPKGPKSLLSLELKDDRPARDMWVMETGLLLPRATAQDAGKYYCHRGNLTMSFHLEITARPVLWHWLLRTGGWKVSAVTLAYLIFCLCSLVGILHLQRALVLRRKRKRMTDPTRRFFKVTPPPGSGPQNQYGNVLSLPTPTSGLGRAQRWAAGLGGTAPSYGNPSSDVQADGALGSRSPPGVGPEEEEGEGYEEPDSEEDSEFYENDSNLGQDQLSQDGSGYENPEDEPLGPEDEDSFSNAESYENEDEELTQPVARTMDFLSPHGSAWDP
# B1: CD19×CD3 bi-specific antibody using clone 37 (bispecific antibody, part only; not given: anti-CD3 scFv arm, linker, His tag, not shown: another chain or arm of the molecule; small tags and cut ends)
# scFv: EIVLTQSPSSLSASVGDRVTISCRASQSVSRFLNWYQQKPGKAPKLLIYGVSTLERGVPSRFSGSGSGTDFTLTISSLQPEDFATYYCQESYIIPLTFGGGTKLEIKRSRGGGGSGGGGSGGGGSLEMAEVQLVQSGAEVKRPGESLTISCKGSEYSFASYWITWVRQMPGKGLEWMGRIDPSDSYTNYSPSFQGHVTISADKSISTAYLQWSSLKASDTAIYYCARPFQYDYGGYSDAFDIWGQGTMVTVSS
# Target: human CD19 expressed on the cell surface (native format) (human) (UniProt P15391)
# Assay: flow cytometry, human PBMC gated on CD20+CD3- B cells, FITC anti-His detection
binder,measurement,value
B1,Mean Fluorescence Intensity (MFI) in FITC channel,2080 MFI
